According to publication PMC5946105:
These are yes or no findings as the source states them, for the method shown. In cells and extracts the contact can be indirect. Binding can be weak; no strength is given.

Target: endogenous α-actinin (human (endogenous in MCF10A))
Assay: co-IP; polyclonal anti-α-actinin antibody on Dynabeads Protein A; stable control MCF10A cell lysate, 500 µg total protein; 10 mM Tris-HCl pH 8.0, 150 mM NaCl, 5 mM EDTA, 0.5% Triton X-100, 60 mM N-octylglucoside; Western blot

binding: binds
B1: flotillin-1 (protein, UniProt O75955 1-427)
chain: MFFTCGPNEAMVVSGFCRSPPVMVAGGRVFVLPCIQQIQRISLNTLTLNVKSEKVYTRHGVPISVTGIAQVKIQGQNKEMLAAACQMFLGKTEAEIAHIALETLEGHQRAIMAHMTVEEIYKDRQKFSEQVFKVASSDLVNMGISVVSYTLKDIHDDQDYLHSLGKARTAQVQKDARIGEAEAKRDAGIREAKAKQEKVSAQYLSEIEMAKAQRDYELKKAAYDIEVNTRRAQADLAYQLQVAKTKQQIEEQRVQVQVVERAQQVAVQEQEIARREKELEARVRKPAEAERYKLERLAEAEKSQLIMQAEAEAASVRMRGEAEAFAIGARARAEAEQMAKKAEAFQLYQEAAQLDMLLEKLPQVAEEISGPLTSANKITLVSSGSGTMGAAKVTGEVLDILTRLPESVERLTGVSISQVNHKPLRTA
